Data from paper PMC11005723, “Development of Complementary Photo‐arginine/lysine to Promote Discovery of Arg/Lys hPTMs Interactomes” (Advanced Science, 2024).
The source gives many values for each of these; only a part stands here.

Tested on: HEK293T nuclear lysates
Assay: SILAC‐based pull‐down proteomics H4K5me1/H4K5 (probes 6/5)
Type: binding, human

## probe 6: H4K5me peptide probe with photo‐arginine R(dz) and K(biotin) (SGRGKGGKGLGKGGK; photo-arginine R(dz) at 3; monomethyl-lysine at 5; K(biotin) at 15)
Protein CHD4 (A0A2R8Y425), run C6
  C6 log (H4K5me/H4K5): 0.0526
Protein CHD8 (Q9HCK8), SILAC run B6
  B6 log2 (H4K5me/H4K5): -0.7918
Protein CHD8 (Q9HCK8), SILAC run C6
  C6 log (H4K5me/H4K5): -0.539
Protein CHORDC1 (Q9UHD1), SILAC run B6
  B6 log2 (H4K5me/H4K5): -0.3252
Protein CHORDC1 (Q9UHD1), SILAC run C6
  C6 log (H4K5me/H4K5): -0.1742
Protein CKAP5 (Q14008), SILAC run B6
  B6 log2 (H4K5me/H4K5): -0.2391
Protein CKAP5 (Q14008), SILAC run C6
  C6 log (H4K5me/H4K5): -0.06611
Protein CMAS (Q8NFW8), SILAC run B6
  B6 log2 (H4K5me/H4K5): -0.2964
Protein CMAS (Q8NFW8), SILAC run C6
  C6 log (H4K5me/H4K5): -0.2024
Protein CORO1C (Q9ULV4), run B6
  B6 log2 (H4K5me/H4K5): 0.02026
Protein CORO1C (Q9ULV4), run C6
  C6 log (H4K5me/H4K5): 0.01128
Protein CPNE3 (O75131), run B6
  B6 log2 (H4K5me/H4K5): 0.002092
Protein CPNE3 (O75131), run C6
  C6 log (H4K5me/H4K5): -0.07952
Protein CPOX (P36551), SILAC run B6
  B6 log2 (H4K5me/H4K5): -0.357
Protein CPOX (P36551), SILAC run C6
  C6 log (H4K5me/H4K5): -0.3607
Protein CPSF2 (Q9P2I0), run B6
  B6 log2 (H4K5me/H4K5): 0.02363
Protein CPSF2 (Q9P2I0), run C6
  C6 log (H4K5me/H4K5): -0.07048
Protein CPSF7 (F5H669), run B6
  B6 log2 (H4K5me/H4K5): 0.09419
Protein CPSF7 (F5H669), run C6
  C6 log (H4K5me/H4K5): -0.1277
Protein CSNK2B (P67870), run B6
  B6 log2 (H4K5me/H4K5): 0.003837
Protein CSNK2B (P67870), run C6
  C6 log (H4K5me/H4K5): -0.1748
Protein CSTF1 (Q05048), run B6
  B6 log2 (H4K5me/H4K5): 0.09689
Protein CSTF1 (Q05048), run C6
  C6 log (H4K5me/H4K5): 0.02339
Protein CTBP2 (P56545), SILAC run B6
  B6 log2 (H4K5me/H4K5): -0.2045
Protein CTBP2 (P56545), SILAC run C6
  C6 log (H4K5me/H4K5): 0.1511
Protein CTTN (Q14247), run B6
  B6 log2 (H4K5me/H4K5): 0.043
Protein CTTN (Q14247), run C6
  C6 log (H4K5me/H4K5): 0.03518
Protein CXXC1 (Q9P0U4), SILAC run B6
  B6 log2 (H4K5me/H4K5): -0.2086
Protein CXXC1 (Q9P0U4), SILAC run C6
  C6 log (H4K5me/H4K5): -0.3937
Protein D6R9P3 HNRNPAB, run B6
  B6 log2 (H4K5me/H4K5): 0.5392
Protein D6R9P3 HNRNPAB, run C6
  C6 log (H4K5me/H4K5): 0.5392
Protein DARS (P14868), SILAC run B6
  B6 log2 (H4K5me/H4K5): -0.4811
Protein DARS (P14868), SILAC run C6
  C6 log (H4K5me/H4K5): -0.009973
Protein DCAF8 (V9GY54), run B6
  B6 log2 (H4K5me/H4K5): 0.05924
Protein DCAF8 (V9GY54), run C6
  C6 log (H4K5me/H4K5): -0.3216
Protein DDB1 (Q16531), SILAC run B6
  B6 log2 (H4K5me/H4K5): -0.3208
Protein DDB1 (Q16531), SILAC run C6
  C6 log (H4K5me/H4K5): -0.002132
Protein DDOST (A0A0C4DGS1), run B6
  B6 log2 (H4K5me/H4K5): 0.0291
Protein DDOST (A0A0C4DGS1), run C6
  C6 log (H4K5me/H4K5): -0.1546
Protein DDX17 (A0A1X7SBZ2), run B6
  B6 log2 (H4K5me/H4K5): 0.03459
Protein DDX17 (A0A1X7SBZ2), run C6
  C6 log (H4K5me/H4K5): 0.09966
Protein DDX23 (Q9BUQ8), SILAC run B6
  B6 log2 (H4K5me/H4K5): -0.645
Protein DDX23 (Q9BUQ8), SILAC run C6
  C6 log (H4K5me/H4K5): 0.07117
Protein DDX52 (Q9Y2R4), run B6
  B6 log2 (H4K5me/H4K5): 0.01416
Protein DDX52 (Q9Y2R4), run C6
  C6 log (H4K5me/H4K5): -0.154
Protein DEK (P35659), run B6
  B6 log2 (H4K5me/H4K5): 0.08378
Protein DEK (P35659), run C6
  C6 log (H4K5me/H4K5): 0.01506
Protein DENR (O43583), SILAC run B6
  B6 log2 (H4K5me/H4K5): -0.3915
Protein DENR (O43583), SILAC run C6
  C6 log (H4K5me/H4K5): -0.324
Protein DFFA (O00273), SILAC run B6
  B6 log2 (H4K5me/H4K5): -0.7905
Protein DFFA (O00273), SILAC run C6
  C6 log (H4K5me/H4K5): 0.3141
Protein DHX9 (Q08211), run B6
  B6 log2 (H4K5me/H4K5): 0.03982
Protein DHX9 (Q08211), run C6
  C6 log (H4K5me/H4K5): 0.0187
Protein DIDO1 (Q9BTC0), SILAC run B6
  B6 log2 (H4K5me/H4K5): -0.657
Protein DIDO1 (Q9BTC0), SILAC run C6
  C6 log (H4K5me/H4K5): -0.05402
Protein DIEXF (Q68CQ4), SILAC run B6
  B6 log2 (H4K5me/H4K5): -0.2279
Protein DIEXF (Q68CQ4), SILAC run C6
  C6 log (H4K5me/H4K5): -0.1955
Protein DKC1 (O60832), run B6
  B6 log2 (H4K5me/H4K5): -0.003383
Protein DKC1 (O60832), run C6
  C6 log (H4K5me/H4K5): 0.05653
Protein DLGAP5 (Q15398), run B6
  B6 log2 (H4K5me/H4K5): -0.003472
Protein DLGAP5 (Q15398), run C6
  C6 log (H4K5me/H4K5): 0.1996
Protein DNAJA1 (P31689), SILAC run B6
  B6 log2 (H4K5me/H4K5): -0.2792
Protein DNAJA1 (P31689), SILAC run C6
  C6 log (H4K5me/H4K5): -0.1772
Protein DNAJC2 (Q99543), SILAC run B6
  B6 log2 (H4K5me/H4K5): -0.3923
Protein DNAJC2 (Q99543), SILAC run C6
  C6 log (H4K5me/H4K5): -0.3831
Protein DNM2 (P50570), run B6
  B6 log2 (H4K5me/H4K5): -0.02166
Protein DNM2 (P50570), run C6
  C6 log (H4K5me/H4K5): 0.0843
Protein DR1 (Q01658), SILAC run B6
  B6 log2 (H4K5me/H4K5): -0.8115
Protein DR1 (Q01658), SILAC run C6
  C6 log (H4K5me/H4K5): -0.5699
Protein DYNC1I2 (Q13409), SILAC run B6
  B6 log2 (H4K5me/H4K5): -0.2787
Protein DYNC1I2 (Q13409), SILAC run C6
  C6 log (H4K5me/H4K5): -0.5038
Protein DYNC1LI1 (Q9Y6G9), SILAC run B6
  B6 log2 (H4K5me/H4K5): -0.3983
Protein DYNC1LI1 (Q9Y6G9), SILAC run C6
  C6 log (H4K5me/H4K5): -0.2367
Protein DYNLL1 (P63167), run B6
  B6 log2 (H4K5me/H4K5): 0.005615
Protein DYNLL1 (P63167), run C6
  C6 log (H4K5me/H4K5): -0.116
Protein E9PBF6 LMNB1, run B6
  B6 log2 (H4K5me/H4K5): 1.205
Protein E9PBF6 LMNB1, run C6
  C6 log (H4K5me/H4K5): 1.205
Protein E9PID8 CSTF2, run B6
  B6 log2 (H4K5me/H4K5): 0.6287
Protein E9PID8 CSTF2, run C6
  C6 log (H4K5me/H4K5): 0.6287
Protein E9PKG1 PRMT1, run B6
  B6 log2 (H4K5me/H4K5): 0.1316
Protein E9PKG1 PRMT1, run C6
  C6 log (H4K5me/H4K5): 0.02146
Protein E9PLT0 CSDE1, run B6
  B6 log2 (H4K5me/H4K5): 0.4269
Protein E9PLT0 CSDE1, run C6
  C6 log (H4K5me/H4K5): -0.09917
Protein E9PNW0 NAP1L4, run B6
  B6 log2 (H4K5me/H4K5): 0.2756
Protein E9PNW0 NAP1L4, run C6
  C6 log (H4K5me/H4K5): 0.24
Protein EBNA1BP2 (Q99848), SILAC run B6
  B6 log2 (H4K5me/H4K5): -0.2103
Protein EBNA1BP2 (Q99848), SILAC run C6
  C6 log (H4K5me/H4K5): -0.1347
Protein EEF2 (P13639), run B6
  B6 log2 (H4K5me/H4K5): 0.0343
Protein EEF2 (P13639), run C6
  C6 log (H4K5me/H4K5): -0.01287
Protein EFTUD2 (Q15029), run B6
  B6 log2 (H4K5me/H4K5): 0.08927
Protein EFTUD2 (Q15029), run C6
  C6 log (H4K5me/H4K5): 0.05893
Protein EIF2S3 (P41091), SILAC run B6
  B6 log2 (H4K5me/H4K5): -0.4812
Protein EIF2S3 (P41091), SILAC run C6
  C6 log (H4K5me/H4K5): -0.2686
Protein EIF4A3 (P38919), run B6
  B6 log2 (H4K5me/H4K5): 0.05017
Protein EIF4A3 (P38919), run C6
  C6 log (H4K5me/H4K5): 0.07576
Protein EIF4G1 (E7EX73), SILAC run B6
  B6 log2 (H4K5me/H4K5): -0.2663
Protein EIF4G1 (E7EX73), SILAC run C6
  C6 log (H4K5me/H4K5): -0.0385
Protein EIF6 (B7ZBH1), run B6
  B6 log2 (H4K5me/H4K5): 0.04135
Protein EIF6 (B7ZBH1), run C6
  C6 log (H4K5me/H4K5): 0.2467
Protein ELAVL1 (Q15717), run B6
  B6 log2 (H4K5me/H4K5): 0.06776
Protein ELAVL1 (Q15717), run C6
  C6 log (H4K5me/H4K5): -0.02088
Protein ELF2 (Q15723), SILAC run B6
  B6 log2 (H4K5me/H4K5): -0.8729
Protein ELF2 (Q15723), SILAC run C6
  C6 log (H4K5me/H4K5): -0.9053
Protein ESCO2 (Q56NI9), SILAC run B6
  B6 log2 (H4K5me/H4K5): -0.5515
Protein ESCO2 (Q56NI9), SILAC run C6
  C6 log (H4K5me/H4K5): -0.4491
Protein ETF1 (B7Z7P8), run B6
  B6 log2 (H4K5me/H4K5): 0.07104
Protein ETF1 (B7Z7P8), run C6
  C6 log (H4K5me/H4K5): -0.1331
Protein EXOSC10 (Q01780), SILAC run B6
  B6 log2 (H4K5me/H4K5): -0.8849
Protein EXOSC10 (Q01780), SILAC run C6
  C6 log (H4K5me/H4K5): -0.02506
Protein EZR (E7EQR4), run B6
  B6 log2 (H4K5me/H4K5): 0.03943
Protein EZR (E7EQR4), run C6
  C6 log (H4K5me/H4K5): 0.1462
Protein F8VVM2 SLC25A3, run B6
  B6 log2 (H4K5me/H4K5): 0.1434
Protein F8VVM2 SLC25A3, run C6
  C6 log (H4K5me/H4K5): 0.03702
